This test in a line: qHTS Assay for Lipid Storage Modulators in Drosophila S3 Cells.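 As to cell number change: cells counted by Cell Tracker Red CMTPX staining in the red channel.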 Particulars: BODIPY lipid droplet fluorescence, 18-24 h; for cell number change: measured here: cell count max response, cells fed with added oleic acid. A digest of the protocol: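 Drosophila S3 cells got compounds at several concentrations plus oleic acid (400 uM solution). Laser-scanning cytometry with 488 nm excitation read lipid droplets at 500-530 nm and cells at 575-640 nm. Percent activity was relative to 20 uM Triacsin C.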
(Quantitative high-throughput screening tests each substance at several concentrations.)

The mark [1] stands for this setting: measured here: cell number channel AC50, cells fed with added oleic acid.
Where [2] appears, read: measured here: lipid fluorescence (Fed channel) AC50, cells fed with added oleic acid.

The list shows a part of the results. These are further read-outs of the screen, such as a control signal, another cell line or another target. No call is given for them. The list favours compounds with an active or inconclusive main result. Words in brackets tell the shape of the fitted curve; partial curves, single points and poor fits give uncertain potencies.

With `Cc1ccc(OCCNC(=O)c2cccc(C)c2)cc1`, the cell number change stood at 8.11%.

On to `CNC(C)C(=O)NC(C(=O)N1CCCC1C(=O)NC1CCCc2ccccc21)C(C)C` (centres undefined), for which the cell number change was -31.2%. In addition, the AC50 – broadly, the concentration at which the activity in the assay is half-maximal – under setting [1] is 13 µM [falling, partial curve].

Regarding `CCCCNS(=O)(=O)c1ccc2nc(SCC(=O)c3ccc(C#N)cc3)[nH]c2c1`, the cell number change was -25.8%. Moreover, the AC50 under setting [2] is 2.31 µM [falling, full curve].

For `CN(C)c1ccc(CNCCC(Cc2ccccc2)c2ccco2)cc1` (centres undefined), the cell number change was -72.7%. For the same compound, under setting [1], the AC50 is 18.4 µM [falling, single point]. Also, under setting [2], the AC50 was 20.6 µM [falling, single point].

As for `C[N+]1(CC(O)COCC2COc3ccccc3O2)CCOCC1` (centres undefined), the cell number change is -45.5%. Moreover, the AC50 under setting [1] was 11.6 µM [falling, partial curve, poor fit].

Take `CCCn1c(SC(C)C(=O)N2CCOCC2)nc2ccc(Br)cc2c1=O` (centres undefined): the cell number change was 8.8%. The concentration at half-maximal activity (AC50) under setting [2] was 1.64 µM [rising, full curve].

As for `CCN(CC)CCN(C(=O)CCOc1ccccc1)c1nc2ccc(F)cc2s1`, the cell number change was -44.7%. For the same compound, under setting [1], the AC50 was 25.9 µM [falling, single point].

For the compound `O=c1c2ccccc2cnn1-c1nc2ccccc2[nH]1`, the cell number change was -13.4%. Under setting [1], the AC50 was 6.51 µM [falling, single point].

`NCC12CC3CC(C1)CC(c1ccc(Cl)cc1)(C3)C2`: the cell number change is -36%. Besides, the AC50 under setting [1] was 18.4 µM [falling, single point]. In addition, under setting [2], the AC50 is 29.1 µM [falling, single point].

Regarding `COc1ccc(CN(C)C(=O)c2cccc(C(=O)N(C)Cc3ccc(OC)cc3)c2)cc1`, the AC50 under setting [2] was 0.58 µM [rising, single point].

For `COc1ccc(CNC(=O)CN2CCC(NC(=O)c3ccccc3C)CC2)cc1`, the cell number change was found to be 19.2%. For the same compound, under setting [2], the AC50 is 29.1 µM [rising, single point].

In the case of `Cc1cccc(C#N)c1NC1=CC(=O)CC(C)(C)C1`, the cell number change amounted to 13.5%. Further, under setting [2], the AC50 is 2.91 µM [rising, partial curve, poor fit].

On to `CCOc1ccc(CO[C@@H]2O[C@H](CO)[C@@H](O)[C@H](O)[C@H]2NC(C)=O)cc1OC`, for which the cell number change came to 28.4%.

`O=C(Nc1ccccc1)C1CCCN(C(=O)c2ccc(Cl)cc2)C1` (centres undefined): the cell number change worked out at 27.7%. Besides, the AC50 under setting [2] was 0.326 µM [rising, full curve, poor fit].

As for `CCOc1ccc(NC(=O)CSc2nc3ccccc3c(=O)n2Cc2cccs2)cc1`, the cell number change came to 22.1%. Also, the AC50 under setting [2] is 0.0517 µM [rising, full curve, poor fit].

Turning to `CN(CC(=O)Nc1ccc(Cl)cc1)CC(=O)Nc1cccc(Br)c1`, the cell number change is -34.1%. Further, the AC50 under setting [1] was 0.206 µM [falling, full curve, poor fit].

On to `CC(=O)N1CCN(CC(=O)Nc2ccc([N+](=O)[O-])cc2Br)CC1`, for which the cell number change was found to be 28.3%.

In the case of `Cc1ccc(-c2cc(C(=O)OCn3nnc4ccccc4c3=O)c3ccccc3n2)cc1`, the cell number change worked out at 3.29%. The AC50 under setting [2] was 1.16 µM [rising, partial curve].

Regarding `O=C(NCCCN1CCOCC1)C(Sc1ccccc1)c1ccccc1` (centres undefined), the cell number change is -8.92%. Moreover, the AC50 under setting [2] is 2.31 µM [falling, full curve].

In the case of `Cc1cc([N+](=O)[O-])nn1CCCC(=O)Nc1ccc(Cl)cc1Cl`, the cell number change was found to be 5.55%.

Regarding `CC1CCC(NS(=O)(=O)c2ccc3c(c2)n(C)c(=O)c(=O)n3C)CC1` (centres undefined), the cell number change is -16%.

For the compound `Cc1cnc(C(=O)OCC(=O)Nc2ccc(C)c(S(=O)(=O)N3CCCCCC3)c2)cn1`, the cell number change was 23.9%. Further, the AC50 under setting [2] was 6.51 µM [falling, single point].

For `NC(=O)c1c(-c2ccc(Cl)cc2Cl)csc1NC(=O)Cc1ccccc1`, the cell number change was -19.3%. Under setting [2], the AC50 was 29.1 µM [falling, single point].

Consider `CC(=O)Nc1nc2cc3c(cc2s1)OCO3`, for which the cell number change was -30.9%. The AC50 under setting [2] was 29.1 µM [rising, single point].

Turning to `COc1ccc(C(=O)NC2CC2)cc1OC1CCN(Cc2ccc(NC(C)=O)cc2)CC1`, the cell number change is 9.72%.

`O=S(=O)(Nc1ccccc1N1CCCCC1)c1ccc(Cl)s1`: the cell number change was -1.01%.

On to `CCCCN(CCCC)C(=O)c1c[nH]c2ccc(S(=O)(=O)Nc3cccc(Cl)c3C)cc2c1=O`, for which the cell number change is 40.2%. Further, the AC50 under setting [1] was 16.4 µM [rising, single point].

With `O=C(CNC(=S)NC(=O)C1CCCCC1)c1ccccc1`, the cell number change amounted to 93.9%. In addition, the AC50 under setting [1] is 3.26 µM [rising, full curve]. In addition, under setting [2], the AC50 is 23.1 µM [rising, partial curve].

Consider `Cc1ccc(C(=O)Nc2cnc3ccccn3c2=O)cc1`, for which the cell number change was determined as 6.86%. Moreover, the AC50 under setting [2] is 9.2 µM [rising, partial curve].

For `Cc1cc(/C=N/NC(=O)c2cccc([N+](=O)[O-])c2)c(C)n1-c1ccc(Cl)cc1Cl`, the cell number change is 8.51%.

As for `CCOC(=O)C1=C(N)Oc2cc(O)ccc2C1c1cccc([N+](=O)[O-])c1` (centres undefined), the cell number change is -28.4%. Further, the half-maximal activity concentration (AC50) under setting [2] is 23.1 µM [falling, single point].

Take `COc1cc(OC)c(C(=O)Nc2cc(Cl)ccc2-n2cncn2)cc1OC`: the cell number change was 20.8%.

As to `C=CCNC(=O)c1sccc1Oc1ccc(F)cc1[N+](=O)[O-]`, the cell number change was determined as 16.8%. Moreover, the AC50 under setting [1] is 3.26 µM [rising, single point].

Consider `CN(CC(=O)NCCc1ccccc1)S(=O)(=O)c1ccccc1`, for which the cell number change was found to be 23.4%.

With `CCOC(=O)Cn1nnc(-c2ccc(S(C)(=O)=O)cc2)n1`, the cell number change was -3.88%. Further, the AC50 under setting [2] is 25.9 µM [falling, single point].

Regarding `O=C(c1ccc(Cl)cc1)c1nnc(-c2ccncc2)o1`, the cell number change is -20.8%.

Take `Cn1cc(SCC(N)=O)c2ccccc21`: the cell number change was -13.7%. The AC50 under setting [2] was 14.6 µM [falling, partial curve].

`O=C(O)c1ccc(OCCN2CCCC2=O)cc1`: the cell number change stood at 9.67%. The AC50 under setting [2] was 0.58 µM [rising, single point].

For the compound `O=C(NC1CC1)C1CCN(C2CCN(C(=O)CCOc3ccccc3)CC2)CC1`, the cell number change was -1.55%. The AC50 under setting [2] was 0.206 µM [falling, full curve, poor fit].

Consider `Cc1c(/C=C(\CC(=O)O)c2nc3ccccc3s2)cc(C#N)n1C`, for which the cell number change was -19%. For the same compound, under setting [2], the AC50 is 25.9 µM [falling, single point].

Regarding `Cc1cc(=O)c(C(=O)O)cn1-c1ccc(C(C)C)cc1`, the cell number change was -38.4%.

For `O=C(Cc1cccc2ccccc12)NCCC1=CCCCC1`, the cell number change is 45.1%. Besides, the AC50 under setting [1] was 7.31 µM [rising, partial curve]. Also, under setting [2], the AC50 is 4.61 µM [falling, partial curve, poor fit].

Turning to `Cc1oc2c(CN3CCC(C)CC3)c(O)ccc2c(=O)c1-c1ccccc1`, the cell number change worked out at 31.9%.

Consider `Cc1ccc(OCc2cc(C(=O)N3CCN(CC(=O)NC(C)C)CC3)no2)cn1`, for which the AC50 reads like this: under setting [1], 0.651 µM [falling, partial curve]; under setting [2], 6.51 µM [falling, single point].

`O=[N+]([O-])c1ccc(O)c(-c2cc(C(F)(F)F)nc(-c3ccccc3)n2)c1`: the cell number change is -37.5%. For the same compound, the AC50 under setting [1] is 18.4 µM [falling, partial curve, poor fit].

Consider `CCNc1nc(NC(C)C)nc(OCCNS(=O)(=O)c2cc(C)ccc2C)n1`, for which the cell number change is -7.45%. In addition, the AC50 under setting [2] is 7.31 µM [rising, partial curve, poor fit].

For `O=C(Nc1ccc(OC(F)(F)F)cc1)N1CCN(c2ccnc3cc(Cl)ccc23)CC1`, the cell number change turned out to be 14.9%. Moreover, the AC50 under setting [1] was 0.461 µM [rising, partial curve]. For the same compound, the AC50 under setting [2] is 0.259 µM [rising, full curve].

As for `CCOc1ccc(NC2c3ccccc3C(=O)N2Cc2ccc3c(c2)OCO3)cc1` (centres undefined), the cell number change came out at 17.1%.

In the case of `CCc1ccccc1NC(=O)CCNC(=O)Cn1ccc2ccccc2c1=O`, the cell number change was -1.9%.

As for `CN(c1ccccc1)S(=O)(=O)c1cccc(NC(=O)CSc2nncn2C)c1`, the cell number change is 16.6%. Besides, the AC50 under setting [2] was 3.66 µM [rising, partial curve, poor fit].

Take `Cc1ccc(/C(N)=N/OC(=O)c2ccc(C)cc2Cl)cc1`: the cell number change worked out at 13.5%. The AC50 under setting [2] is 18.4 µM [rising, single point].

Consider `Fc1ccc(-c2nc(-c3cccs3)[nH]c2-c2ccc(F)cc2)cc1`, for which the cell number change was determined as 26.9%. Moreover, under setting [1], the AC50 is 0.326 µM [rising, full curve, poor fit]. In addition, the AC50 under setting [2] is 1.16 µM [rising, partial curve].

Consider `O=C(NCCCO)C(=O)NCC(c1ccc2c(c1)OCO2)N1CCN(c2ccc(F)cc2)CC1` (centres undefined), for which the cell number change stood at 7.65%.

With `CN(Cc1cnccn1)C(=O)CC1C(=O)NCCN1Cc1ccc(F)cc1Cl` (centres undefined), the cell number change is 17.8%. The AC50 under setting [2] was 29.1 µM [rising, single point].

As to `Cc1ccc(NS(=O)(=O)c2csc(C(N)=O)c2)cc1C`, the cell number change was -28.9%. The AC50 under setting [1] is 0.92 µM [falling, full curve, poor fit]. Further, the AC50 under setting [2] was 6.51 µM [rising, partial curve, poor fit].

Turning to `CCc1cc2ccc(C)c(C)c2nc1SCC(=O)NNC(=O)c1ccco1`, the cell number change was -5.71%. Under setting [2], the AC50 was 29.1 µM [rising, single point].

With `COc1cc(NC(=O)COC(=O)/C=C/c2ccccc2Cl)cc(OC)c1`, the cell number change was -1.72%. The concentration at half-maximal activity (AC50) under setting [2] was 18.4 µM [rising, single point].

For `NC(=O)COC(=O)c1cccc(S(=O)(=O)N2CCCCC2)c1`, the AC50 under setting [2] was 0.13 µM [falling, single point].

Take `CN(N=Nc1cccc([N+](=O)[O-])c1)c1ccccc1`: the cell number change came to 79.6%. Also, the AC50 under setting [1] was 29.1 µM [rising, single point].

As for `CCCn1c(SCc2nc(-c3cccs3)no2)nnc1-c1ccncc1`, the cell number change worked out at 0.334%. The AC50 under setting [1] is 2.91 µM [rising, partial curve]. Further, the AC50 under setting [2] is 1.3 µM [rising, partial curve].

In the case of `O=C(O)CCc1nc2cc3ccccc3cc2[nH]1`, the cell number change turned out to be 8.3%. Besides, the AC50 under setting [2] is 0.13 µM [falling, full curve, poor fit].

Regarding `O=C(NCC(c1cccnc1)N1CCOCC1)c1ccco1` (centres undefined), the cell number change came out at 1.87%. Under setting [2], the AC50 is 0.651 µM [rising, full curve].

Take `CCc1ccc(S(=O)(=O)Nc2nnc(N)s2)cc1`: the cell number change came to 5.47%.

Consider `Cc1ccccc1CCNC(=O)CCn1nc(C)c2c(C)n(-c3ccccc3)nc2c1=O`, for which the cell number change was -15.8%. The AC50 under setting [2] was 0.082 µM [rising, full curve, poor fit].

Regarding `COc1ccc(NC2=C(Cl)C(=O)N(CCc3ccccc3)C2=O)c(OC)c1`, the cell number change was -31.4%. The AC50 under setting [1] was 6.51 µM [falling, single point].

Source of the values: PubChem BioAssay AID2685 (National Center for Advancing Translational Sciences (NCATS), 2010).
